Results published in PubChem BioAssay AID1347431 (National Center for Advancing Translational Sciences (NCATS), 2020).
Among all 1,200 compounds or so, fewer than 10 were called active. Calls come from the whole dose curve; as a rule, active = well fitted curve in the direction sought with a large enough effect; inconclusive = small, poorly fitted or top-dose-only effect, or another doubt; inactive = no such curve, though single readings can be large or run the other way. The list shows a part of the results.

Test: Confirmatory qHTS assay for inhibitors of Activation Induced Cytidine Deaminase (AID): UDG signals; note: 0% is about no effect
Details: UDG coupled enzyme activity counter-screen; at 115 µM (top of the series) unless noted
How it was run: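 UDG readout, a counterscreen: AID (1 uM, 4/3x) plus UDG (2 U/mL, 4/3x) preincubated 10 min with compound (7.32 nM - 114 uM final), then 4 h with DJC20/DJC23 substrates at room temperature; NaOH added, fluorescence read at 560/665 nm.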
In the case of `Cc1cc(N(C)Cc2ccccc2)n2nc(-c3ccc(C(C)(C)C)cc3)nc2n1`, the activity change, negative = inhibition is reported as inactive: -13.6%.
With `O=C(CSc1nc(-c2ccc(F)cc2)nc2c1Cc1ccccc1O2)Nc1cccc(C(=O)O)c1` the activity change, negative = inhibition was inactive: 5.5%.
With `Cc1ccc2c(c1)c(=O)c(C(=O)c1ccccc1)cn2Cc1ccccc1F` the activity change, negative = inhibition was inactive: -2.73%.
For `Cc1ccc(C(C)C)c(OCC(=O)NCC2(N3CCOCC3)CCCCC2)c1`, the activity change, negative = inhibition was inactive: -2.06%.
In the case of `CCOc1ccc(-c2n[nH]c3c2C(c2ccccc2OC)N(c2ccc(Br)cc2)C3=O)cc1` (stereo not drawn), the activity change, negative = inhibition is reported as inactive: -1.1%.
In the case of `CCOC(=O)c1ccc(CSc2nnc3cc(C)c4ccccc4n23)cc1`, the activity change, negative = inhibition is reported as inactive: 3.64%.
In the case of `Cc1ccccc1Nc1c(-c2ccc(N3CCOCC3)cc2)nc2ccccn12`, the activity change, negative = inhibition is reported as inactive: -1.79%.
For `CC(C)CCN(Cc1ccco1)C(=O)c1cc2c(s1)-c1ccccc1OC2`, the activity change, negative = inhibition was inactive: -3.35%.
In the case of `CCc1nn(C(C)C(=O)N2CCN(c3cccc(C(F)(F)F)c3)CC2)c(=O)c2cc3occc3n12` (stereo not drawn), the activity change, negative = inhibition is reported as inactive: 0.752%.
In the case of `Cc1ccc(-n2ncc(C(=O)NCCc3ccccc3)c2C2CCN(C(=O)OC(C)(C)C)CC2)c(C)c1`, the activity change, negative = inhibition is reported as inactive: -6.03%.
For `CCc1ccc2c(c1)c(=O)c(S(=O)(=O)c1ccc(Cl)cc1)cn2CC`, the activity change, negative = inhibition was inactive: -0.548%.
In the case of `Cc1cc2c(C(C)C)c(O)c(O)c(C=O)c2c(O)c1-c1c(C)cc2c(C(C)C)c(O)c(O)c(C=O)c2c1O`, the activity change, negative = inhibition is reported as inactive: -7.01%.
With `Cc1cc(C)c(OCC(=O)N(Cc2ccco2)Cc2ccco2)c(C)c1` the activity change, negative = inhibition was inactive: 3.17%.
For `CCOC(=O)C1=C(C)NC(=O)NC1c1cn(-c2ccccc2)nc1-c1ccc(OCC)cc1` (stereo not drawn), the activity change, negative = inhibition was inactive: -1.28%.
In the case of `Cc1ccc(S(=O)(=O)c2nnn3c2nc(N2CCC(C(N)=O)CC2)c2cc(Cl)ccc23)cc1C`, the activity change, negative = inhibition is reported as inactive: -1.65%.
For `CCCCC1CCC(CCCC(C)CCC(=O)O)CC1` (stereo not drawn), the activity change, negative = inhibition was inactive: -0.766%.
For `COc1cc2c(=O)c(S(=O)(=O)c3ccc(C)cc3)cn(Cc3cccc(C)c3)c2cc1OC`, the activity change, negative = inhibition was inactive: -3.74%.
For `CCOc1cccc(CNc2ccc(O)cc2)c1OCc1ccccc1Cl`, the activity change, negative = inhibition was inactive: -23.4%.
With `CCOc1ccccc1NC(=O)C(C)Sc1nc(-c2ccccc2)c(C#N)c(=O)[nH]1` (stereo not drawn) the activity change, negative = inhibition was inactive: -7.83%.
In the case of `Cc1ccccc1OCc1ccc(-c2nc(C#N)c(N3CCN(C)CC3)o2)o1`, the activity change, negative = inhibition is reported as inactive: -0.767%.
For `CCc1ccc(NC(=O)CSc2nccn2-c2cccc(C)c2C)cc1`, the activity change, negative = inhibition was inactive: -12.7%.
For `O=C(Cc1ccc(F)cc1)N1CCC(c2nc3c(nnn3Cc3ccc(F)cc3)c(=O)[nH]2)CC1`, the activity change, negative = inhibition was inactive: 10.7%.
With `CCn1cc2nc(SCc3ccc(C)cc3)n(CCc3ccccc3)c(=O)c2n1` the activity change, negative = inhibition was inactive: -9.35%.
For `CCOC(=O)C1=C(C)NC(=O)NC1c1cn(-c2ccccc2)nc1-c1ccc(OC(C)C)cc1` (stereo not drawn), the activity change, negative = inhibition was inactive: -6.54%.
For `O=C(CSc1nc(-c2cccs2)nc2cc(=O)[nH]n12)Nc1cccc(C(F)(F)F)c1`, the activity change, negative = inhibition was inactive: -2.26%.
With `O=C(O)c1c(-c2ccccc2)oc2ccc(OCc3ccc(Cl)c(Cl)c3)cc12` the activity change, negative = inhibition was inactive: 7.27%.
In the case of `CCCOc1ccc(-c2nn(-c3ccccc3)cc2C2NC(=O)NC(C)=C2C(=O)OC)cc1` (stereo not drawn), the activity change, negative = inhibition is reported as inactive: -8%.
In the case of `COc1ccc(C(=O)/C=C/c2cn(CC(O)CN(CC(C)C)CC(C)C)c3ccccc23)cc1` (stereo not drawn), the activity change, negative = inhibition is reported as inactive: -10.6%.
In the case of `CC(NC(=O)c1nn(C)c2c1CSc1ccccc1-2)c1ccccc1` (stereo not drawn), the activity change, negative = inhibition is reported as inactive: -3.98%.
With `O=C(c1cnc2cc(-c3ccccc3)nn2c1)c1cc([N+](=O)[O-])ccc1O` the activity change, negative = inhibition was inactive: 6.4%.
In the case of `COc1ccc(CCNC(=O)c2cc(Nc3cc(C)cc(C)c3)nc3ccccc23)cc1OC`, the activity change, negative = inhibition is reported as inactive: -13.1%.
For `CCCCOc1ccc(C(=O)N2CCC(c3nc4ccccc4o3)CC2)cc1`, the activity change, negative = inhibition was inactive: -7.07%.
With `Cc1ccc(-c2nc(NC(=O)CSc3cc(C)c4ccccc4n3)ns2)cc1` the activity change, negative = inhibition was inactive: -2.47%.
With `COc1ccccc1C(=O)NCCn1cc(SCC(=O)Nc2ccccc2F)c2ccccc21` the activity change, negative = inhibition was inactive: -3.69%.
For `COc1ccc(C)cc1NC(=O)c1c(C)oc2ncn(CC(C)C)c(=O)c12`, the activity change, negative = inhibition was inactive: -5.34%.
In the case of `CCCn1cc(S(=O)(=O)c2ccccc2)c(=O)c2cc(F)c(N3CCCC(C)C3)cc21` (stereo not drawn), the activity change, negative = inhibition is reported as inactive: 9.54%.
With `CCCCOc1ccc(C(=O)N2CC(=O)Nc3ccc(Br)cc3C2c2ccc(F)cc2)cc1` (stereo not drawn) the activity change, negative = inhibition was inactive: -9.19%.
In the case of `CCCCOc1ccc(C(=O)Nc2ccc(S(=O)(=O)Nc3nc(C)cc(C)n3)cc2)cc1`, the activity change, negative = inhibition is reported as inactive: 5.37%.
For `CCc1nnc(SCc2cccc(F)c2)c2cc3sc(C)cc3n12`, the activity change, negative = inhibition was inactive: -2.57%.
For `COc1ccc(-c2cn3cccnc3n2)cc1NC(=O)Nc1cc(C)ccc1C`, the activity change, negative = inhibition was inactive: 0.347%.
For `Cc1ccc(Cl)cc1N1CCN(C(=O)c2cc3ccc4cccnc4c3[nH]2)CC1`, the activity change, negative = inhibition was inactive: -10.4%.
For `CC(C)(C)c1ccc(OCc2nc3ccccc3n2CCOc2ccccc2)cc1`, the activity change, negative = inhibition was inactive: -9.15%.
With `CCOc1ccc(/C=C/c2nc(C#N)c(NCc3ccccc3)o2)cc1` the activity change, negative = inhibition was inactive: 0.837%.
In the case of `COc1ccc(Nc2oc(-c3ccc(COc4ccccc4C)o3)nc2C#N)cc1`, the activity change, negative = inhibition is reported as inactive: -0.444%.
In the case of `CCc1ccc(C(=O)c2cn(Cc3ccc(F)cc3)c3cc(OC)c(OC)cc3c2=O)cc1`, the activity change, negative = inhibition is reported as inactive: -8.29%.
With `CCc1ccc(N(CC)C(=O)c2sc3nc4n(c(=O)c3c2C)CCCC4)cc1` the activity change, negative = inhibition was inactive: -12.9%.
For `Cc1ccc(CSc2cn(CCNC(=O)c3cccs3)c3ccccc23)cc1`, the activity change, negative = inhibition was inactive: -4.02%.
With `COc1ccc(Nc2ncc(C(=O)N3CCN(c4ccccc4OC)CC3)c3ccccc23)cc1` the activity change, negative = inhibition was inactive: -7.33%.
In the case of `CCn1cc2nc(SCc3cccc(C)c3)n(CCc3ccccc3)c(=O)c2n1`, the activity change, negative = inhibition is reported as inactive: -0.312%.
With `Cc1nc2nc(SCC(=O)NC3CCC(C)CC3)nn2c(C)c1Cc1ccccc1Cl` (stereo not drawn) the activity change, negative = inhibition was inactive: -0.294%.
For `CCC(NC(C)C)C(O)c1ccc(O)c(O)c1` (stereo not drawn), the activity change, negative = inhibition was inactive: -13.3%.
For `COc1ccc(CNCCC(c2ccc3c(c2)OCO3)c2ccccc2OC)cc1` (stereo not drawn), the activity change, negative = inhibition was inactive: -4.11%.
With `COc1ccc(Cn2cc(C(=O)c3ccc(C)c(C)c3)c(=O)c3ccccc32)cc1` the activity change, negative = inhibition was inactive: -4.47%.
